# The supplement of paper PMC12067093, “Discovery and optimisation of a covalent ligand for TRIM25 and its application to targeted protein ubiquitination” (Chemical Science, 2025)
# Amino acid sequences for entries named in this document (tags omitted). A change or cut given only in a name is not applied to a line headed by its entry.
# UniProt P61916: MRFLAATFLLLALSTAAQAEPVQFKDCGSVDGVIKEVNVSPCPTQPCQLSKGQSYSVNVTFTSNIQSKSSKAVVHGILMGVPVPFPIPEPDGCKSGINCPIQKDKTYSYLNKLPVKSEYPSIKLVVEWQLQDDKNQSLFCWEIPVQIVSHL
# UniProt Q96MF7: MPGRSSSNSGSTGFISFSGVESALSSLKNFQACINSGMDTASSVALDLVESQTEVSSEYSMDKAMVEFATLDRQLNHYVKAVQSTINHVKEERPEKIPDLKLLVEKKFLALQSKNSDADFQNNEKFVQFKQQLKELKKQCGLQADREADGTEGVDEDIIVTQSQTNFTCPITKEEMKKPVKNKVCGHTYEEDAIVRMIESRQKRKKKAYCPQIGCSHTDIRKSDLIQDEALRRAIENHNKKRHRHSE
# UniProt O15226: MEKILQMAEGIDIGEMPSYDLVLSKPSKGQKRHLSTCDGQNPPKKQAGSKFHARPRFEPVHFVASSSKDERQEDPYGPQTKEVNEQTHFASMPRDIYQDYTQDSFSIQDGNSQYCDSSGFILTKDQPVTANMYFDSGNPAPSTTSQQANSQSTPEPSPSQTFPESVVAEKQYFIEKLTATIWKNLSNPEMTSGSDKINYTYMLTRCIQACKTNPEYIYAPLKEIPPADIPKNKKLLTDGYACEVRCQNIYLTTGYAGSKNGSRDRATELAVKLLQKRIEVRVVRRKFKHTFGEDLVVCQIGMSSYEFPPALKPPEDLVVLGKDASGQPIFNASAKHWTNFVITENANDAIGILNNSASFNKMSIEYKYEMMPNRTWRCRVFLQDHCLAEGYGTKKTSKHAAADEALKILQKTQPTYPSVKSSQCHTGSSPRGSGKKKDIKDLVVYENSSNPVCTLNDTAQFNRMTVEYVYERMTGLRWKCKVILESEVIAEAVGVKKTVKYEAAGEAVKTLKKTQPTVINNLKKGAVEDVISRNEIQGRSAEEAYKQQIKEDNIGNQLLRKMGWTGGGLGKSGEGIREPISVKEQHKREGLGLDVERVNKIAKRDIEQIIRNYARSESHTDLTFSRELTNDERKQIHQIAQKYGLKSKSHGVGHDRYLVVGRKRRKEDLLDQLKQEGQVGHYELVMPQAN
# UniProt O96028: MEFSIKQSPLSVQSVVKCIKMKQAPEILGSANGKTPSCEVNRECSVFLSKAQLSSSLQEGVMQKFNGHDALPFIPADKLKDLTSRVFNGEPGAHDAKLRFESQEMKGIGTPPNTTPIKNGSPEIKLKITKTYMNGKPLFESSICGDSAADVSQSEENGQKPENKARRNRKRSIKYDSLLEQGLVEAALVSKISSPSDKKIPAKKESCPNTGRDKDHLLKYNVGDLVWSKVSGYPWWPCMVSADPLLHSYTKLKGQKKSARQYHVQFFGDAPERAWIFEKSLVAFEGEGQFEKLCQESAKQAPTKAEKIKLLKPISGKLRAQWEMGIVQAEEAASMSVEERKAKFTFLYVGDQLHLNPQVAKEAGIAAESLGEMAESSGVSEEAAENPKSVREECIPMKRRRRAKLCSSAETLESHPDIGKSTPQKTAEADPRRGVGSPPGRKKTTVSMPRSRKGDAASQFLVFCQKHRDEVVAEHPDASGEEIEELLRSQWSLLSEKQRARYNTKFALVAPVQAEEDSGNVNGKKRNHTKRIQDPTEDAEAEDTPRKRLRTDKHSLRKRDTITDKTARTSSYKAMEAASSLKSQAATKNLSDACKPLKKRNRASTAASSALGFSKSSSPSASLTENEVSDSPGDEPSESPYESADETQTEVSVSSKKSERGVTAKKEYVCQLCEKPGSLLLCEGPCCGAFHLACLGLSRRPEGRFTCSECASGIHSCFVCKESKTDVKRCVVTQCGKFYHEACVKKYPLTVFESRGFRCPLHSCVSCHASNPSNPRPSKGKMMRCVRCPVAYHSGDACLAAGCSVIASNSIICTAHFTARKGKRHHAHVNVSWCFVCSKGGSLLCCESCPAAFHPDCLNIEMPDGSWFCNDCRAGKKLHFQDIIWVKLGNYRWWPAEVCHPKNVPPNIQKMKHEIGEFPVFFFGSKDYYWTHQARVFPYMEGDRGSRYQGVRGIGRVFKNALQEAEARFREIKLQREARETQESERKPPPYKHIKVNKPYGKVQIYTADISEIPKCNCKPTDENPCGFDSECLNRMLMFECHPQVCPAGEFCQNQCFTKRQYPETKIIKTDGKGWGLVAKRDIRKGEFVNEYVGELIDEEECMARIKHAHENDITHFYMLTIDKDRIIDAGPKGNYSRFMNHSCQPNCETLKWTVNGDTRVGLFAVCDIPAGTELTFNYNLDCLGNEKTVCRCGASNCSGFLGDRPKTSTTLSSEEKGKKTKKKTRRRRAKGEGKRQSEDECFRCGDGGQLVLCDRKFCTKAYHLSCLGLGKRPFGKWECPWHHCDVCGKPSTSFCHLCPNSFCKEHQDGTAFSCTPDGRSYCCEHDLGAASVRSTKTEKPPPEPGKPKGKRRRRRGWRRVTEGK
# UniProt Q9BZ95: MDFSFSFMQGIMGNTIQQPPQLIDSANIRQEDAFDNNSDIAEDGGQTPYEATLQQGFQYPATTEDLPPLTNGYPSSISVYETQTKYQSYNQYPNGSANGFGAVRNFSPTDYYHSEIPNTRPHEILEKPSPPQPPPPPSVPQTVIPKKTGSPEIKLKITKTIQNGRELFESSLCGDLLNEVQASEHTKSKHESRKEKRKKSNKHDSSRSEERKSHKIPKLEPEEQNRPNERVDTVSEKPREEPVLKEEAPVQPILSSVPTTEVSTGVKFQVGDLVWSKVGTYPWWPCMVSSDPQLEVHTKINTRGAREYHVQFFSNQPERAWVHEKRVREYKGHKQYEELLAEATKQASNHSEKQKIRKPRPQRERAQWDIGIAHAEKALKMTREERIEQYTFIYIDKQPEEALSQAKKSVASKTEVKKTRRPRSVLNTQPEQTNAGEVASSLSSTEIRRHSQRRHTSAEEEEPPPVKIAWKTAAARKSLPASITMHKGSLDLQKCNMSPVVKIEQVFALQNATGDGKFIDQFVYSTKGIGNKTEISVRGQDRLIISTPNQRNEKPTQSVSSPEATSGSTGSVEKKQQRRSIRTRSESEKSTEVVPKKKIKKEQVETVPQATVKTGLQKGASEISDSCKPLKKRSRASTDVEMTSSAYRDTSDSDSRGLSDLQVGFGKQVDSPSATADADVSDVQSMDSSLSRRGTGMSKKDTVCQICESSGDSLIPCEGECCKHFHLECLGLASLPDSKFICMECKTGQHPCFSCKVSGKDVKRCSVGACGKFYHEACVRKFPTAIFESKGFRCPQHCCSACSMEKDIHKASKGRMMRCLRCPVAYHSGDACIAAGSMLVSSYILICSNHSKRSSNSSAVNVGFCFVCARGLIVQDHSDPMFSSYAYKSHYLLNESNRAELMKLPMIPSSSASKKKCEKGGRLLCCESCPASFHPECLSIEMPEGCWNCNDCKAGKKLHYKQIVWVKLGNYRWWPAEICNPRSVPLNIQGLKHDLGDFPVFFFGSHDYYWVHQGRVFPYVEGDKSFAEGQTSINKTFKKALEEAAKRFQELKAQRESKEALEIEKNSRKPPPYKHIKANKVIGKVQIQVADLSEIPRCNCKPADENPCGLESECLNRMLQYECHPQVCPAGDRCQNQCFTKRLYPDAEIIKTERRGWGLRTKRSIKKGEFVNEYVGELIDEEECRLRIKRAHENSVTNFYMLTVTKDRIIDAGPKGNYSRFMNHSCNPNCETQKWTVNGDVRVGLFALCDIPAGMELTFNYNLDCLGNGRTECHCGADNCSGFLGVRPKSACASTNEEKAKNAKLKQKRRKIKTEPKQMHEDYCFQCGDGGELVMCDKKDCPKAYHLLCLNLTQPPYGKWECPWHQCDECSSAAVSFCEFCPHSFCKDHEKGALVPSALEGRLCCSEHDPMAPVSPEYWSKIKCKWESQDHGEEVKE
# UniProt Q86U38: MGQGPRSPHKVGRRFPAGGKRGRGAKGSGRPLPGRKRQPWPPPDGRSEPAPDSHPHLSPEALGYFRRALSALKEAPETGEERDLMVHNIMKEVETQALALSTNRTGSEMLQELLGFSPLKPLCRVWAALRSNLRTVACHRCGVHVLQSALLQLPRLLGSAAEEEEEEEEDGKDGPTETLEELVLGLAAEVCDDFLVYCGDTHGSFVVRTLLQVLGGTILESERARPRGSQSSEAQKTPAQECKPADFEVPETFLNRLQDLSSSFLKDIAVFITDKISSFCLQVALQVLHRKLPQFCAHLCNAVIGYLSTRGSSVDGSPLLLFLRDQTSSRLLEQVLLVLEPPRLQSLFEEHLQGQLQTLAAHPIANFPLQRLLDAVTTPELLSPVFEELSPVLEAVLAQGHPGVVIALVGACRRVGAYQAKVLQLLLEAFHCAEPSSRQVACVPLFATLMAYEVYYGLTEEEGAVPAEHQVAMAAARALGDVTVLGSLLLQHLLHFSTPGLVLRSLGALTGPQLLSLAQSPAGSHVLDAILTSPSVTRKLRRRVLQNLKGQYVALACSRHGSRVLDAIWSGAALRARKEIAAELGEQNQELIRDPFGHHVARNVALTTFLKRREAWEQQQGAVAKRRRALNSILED
# UniProt P30414: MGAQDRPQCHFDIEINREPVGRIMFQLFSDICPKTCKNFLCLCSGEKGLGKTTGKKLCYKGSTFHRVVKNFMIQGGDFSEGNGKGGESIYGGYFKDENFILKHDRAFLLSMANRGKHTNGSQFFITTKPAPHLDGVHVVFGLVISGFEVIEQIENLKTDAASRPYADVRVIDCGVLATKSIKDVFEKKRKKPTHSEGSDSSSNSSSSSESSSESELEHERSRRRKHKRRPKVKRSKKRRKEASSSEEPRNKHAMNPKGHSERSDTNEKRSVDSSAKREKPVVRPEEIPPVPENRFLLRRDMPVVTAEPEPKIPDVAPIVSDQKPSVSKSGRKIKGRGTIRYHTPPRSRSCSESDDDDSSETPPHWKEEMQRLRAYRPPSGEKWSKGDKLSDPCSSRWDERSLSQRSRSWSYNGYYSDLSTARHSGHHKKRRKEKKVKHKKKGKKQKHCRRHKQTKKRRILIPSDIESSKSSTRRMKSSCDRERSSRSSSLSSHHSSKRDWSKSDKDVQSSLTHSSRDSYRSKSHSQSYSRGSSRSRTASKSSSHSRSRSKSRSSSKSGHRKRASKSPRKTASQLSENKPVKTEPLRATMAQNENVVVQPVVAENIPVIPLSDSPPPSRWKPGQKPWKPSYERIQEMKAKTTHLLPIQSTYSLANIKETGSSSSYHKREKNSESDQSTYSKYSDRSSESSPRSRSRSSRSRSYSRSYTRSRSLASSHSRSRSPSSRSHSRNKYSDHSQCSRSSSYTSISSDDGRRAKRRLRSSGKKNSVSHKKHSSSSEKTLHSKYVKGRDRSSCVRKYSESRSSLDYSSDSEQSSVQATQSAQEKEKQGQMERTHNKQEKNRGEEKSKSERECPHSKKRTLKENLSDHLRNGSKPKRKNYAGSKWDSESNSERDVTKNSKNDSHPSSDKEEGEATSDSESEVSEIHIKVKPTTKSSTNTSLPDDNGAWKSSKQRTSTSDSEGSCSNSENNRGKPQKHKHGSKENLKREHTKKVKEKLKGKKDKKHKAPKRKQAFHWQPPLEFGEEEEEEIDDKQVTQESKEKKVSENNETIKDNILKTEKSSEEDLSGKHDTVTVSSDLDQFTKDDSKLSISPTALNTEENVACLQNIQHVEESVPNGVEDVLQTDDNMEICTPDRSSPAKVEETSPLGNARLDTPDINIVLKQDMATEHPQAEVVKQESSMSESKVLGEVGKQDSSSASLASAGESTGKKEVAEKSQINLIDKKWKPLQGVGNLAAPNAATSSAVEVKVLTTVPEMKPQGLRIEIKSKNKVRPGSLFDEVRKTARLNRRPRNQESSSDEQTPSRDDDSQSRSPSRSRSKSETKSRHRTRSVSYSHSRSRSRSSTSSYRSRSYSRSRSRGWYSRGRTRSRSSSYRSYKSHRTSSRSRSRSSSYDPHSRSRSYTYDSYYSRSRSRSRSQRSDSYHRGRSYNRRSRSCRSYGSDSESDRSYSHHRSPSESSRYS
# UniProt P30419: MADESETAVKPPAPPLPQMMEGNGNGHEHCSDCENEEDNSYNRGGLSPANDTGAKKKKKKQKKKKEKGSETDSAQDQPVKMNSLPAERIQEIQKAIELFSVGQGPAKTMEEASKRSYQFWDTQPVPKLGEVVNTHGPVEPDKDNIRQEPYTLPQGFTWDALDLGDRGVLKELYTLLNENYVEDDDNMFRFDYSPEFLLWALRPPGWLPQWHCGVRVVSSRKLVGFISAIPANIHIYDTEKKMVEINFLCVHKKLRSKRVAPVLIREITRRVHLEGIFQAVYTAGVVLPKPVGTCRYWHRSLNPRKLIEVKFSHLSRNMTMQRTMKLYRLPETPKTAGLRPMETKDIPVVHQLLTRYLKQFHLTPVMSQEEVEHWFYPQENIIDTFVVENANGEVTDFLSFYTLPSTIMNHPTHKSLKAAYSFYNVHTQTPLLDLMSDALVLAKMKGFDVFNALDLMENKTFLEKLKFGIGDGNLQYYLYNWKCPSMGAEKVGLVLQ
# This is one part of the list.
# Compound: CC1Cc2ccccc2N1C(=O)C1CCCN(C1)C(=O)CCl (mixture of isomers) [TRIM25 ligand 11 (diastereomer mixture)]
# Assay: probe-labelled cysteine peptide fold change vs DMSO (competition) (log2 fold change); higher = less target engagement (more negative = stronger competition)
# Details: 50 µM; THP-1; incubation time: 4 h
# 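Note: competitive chemoproteomic profiling in live THP-1 cells with an iodoacetamide desthiobiotin (IA-DTB) probe, comparing probe-labelled peptide intensities in compound-treated cells against DMSO-treated controls.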
row,Target,probe-labelled cysteine peptide fold change
1,NPLOC4_Q8TAT6_130_SRDPQLCR (UniProt Q8TAT6),-0.0731
2,NPC2_P61916_42+47_EVNVSPCPTQPCQLSK (UniProt P61916),0.0977
3,NLN_Q9BYT8_507_TYFHEFGHVMHQICAQTDFAR (UniProt Q9BYT8),0.0522
4,NSF_P46459_91_QCIGTMTIEIDFLQK (UniProt P46459),0.14
5,NSMCE2_Q96MF7_210+215_AYCPQIGCSHTDIR (UniProt Q96MF7),0.362
6,NPC2_P61916_27_DCGSVDGVIK (UniProt P61916),0.00136
7,NKRF_O15226_386_VFLQDHCLAEGYGTKK (UniProt O15226),-0.153
8,NSD2_O96028_1245_CGDGGQLVLCDR (UniProt O96028),-0.261
9,NSD3_Q9BZ95_495_CNMSPVVK (UniProt Q9BZ95),-0.444
10,NOP9_Q86U38_141_CGVHVLQSALLQLPR (UniProt Q86U38),0.129
11,NKTR_P30414_173_VIDCGVLATK (UniProt P30414),-0.176
12,NMT1_P30419_483_CPSMGAEK (UniProt P30419),-0.138
13,NMD3_Q96D46_214+218_MVEFLQCTVPCR (UniProt Q96D46),-0.0864
14,NT5C2_P49902_433_VTHDMDMCYGMMGSLFR (UniProt P49902),-0.0497
15,NKRF_O15226_453_DLVVYENSSNPVCTLNDTAQFNR (UniProt O15226),0.0134
16,NSDHL_Q15738_104_GVNTVFHCASPPPSSNNK (UniProt Q15738),-0.0494
17,NPEPPSL1_A6NEC2_339_NSCSSSR (UniProt A6NEC2),-0.0896
18,NOL8_Q76FK4_517_SDGPETTTQCK (UniProt Q76FK4),-0.0828
19,NLRX1_Q86UT6_481_FFLAPCVEPGR (UniProt Q86UT6),0.485

# In another format: entries from further up.
row	Target	probe-labelled cysteine peptide fold change
8	NSD2_O96028_1245_CGDGGQLVLCDR (UniProt O96028)	-0.261
9	NSD3_Q9BZ95_495_CNMSPVVK (UniProt Q9BZ95)	-0.444
10	NOP9_Q86U38_141_CGVHVLQSALLQLPR (UniProt Q86U38)	0.129
11	NKTR_P30414_173_VIDCGVLATK (UniProt P30414)	-0.176
12	NMT1_P30419_483_CPSMGAEK (UniProt P30419)	-0.138
